Article PMC7982423
Results are given in words; binding and its absence hold for the method and conditions named. In cells and extracts the contact can be indirect. These calls come from enrichment with a bait or labelling near it, and not all partners need be listed. For part of these data: No binding means not detected with the bait. Where a sequence is shown, tags or fusion partners need not be part of it.

By UniProt entry, the sequences of proteins in these tests, tags left out. Residues count along the entry.
UniProt O08908: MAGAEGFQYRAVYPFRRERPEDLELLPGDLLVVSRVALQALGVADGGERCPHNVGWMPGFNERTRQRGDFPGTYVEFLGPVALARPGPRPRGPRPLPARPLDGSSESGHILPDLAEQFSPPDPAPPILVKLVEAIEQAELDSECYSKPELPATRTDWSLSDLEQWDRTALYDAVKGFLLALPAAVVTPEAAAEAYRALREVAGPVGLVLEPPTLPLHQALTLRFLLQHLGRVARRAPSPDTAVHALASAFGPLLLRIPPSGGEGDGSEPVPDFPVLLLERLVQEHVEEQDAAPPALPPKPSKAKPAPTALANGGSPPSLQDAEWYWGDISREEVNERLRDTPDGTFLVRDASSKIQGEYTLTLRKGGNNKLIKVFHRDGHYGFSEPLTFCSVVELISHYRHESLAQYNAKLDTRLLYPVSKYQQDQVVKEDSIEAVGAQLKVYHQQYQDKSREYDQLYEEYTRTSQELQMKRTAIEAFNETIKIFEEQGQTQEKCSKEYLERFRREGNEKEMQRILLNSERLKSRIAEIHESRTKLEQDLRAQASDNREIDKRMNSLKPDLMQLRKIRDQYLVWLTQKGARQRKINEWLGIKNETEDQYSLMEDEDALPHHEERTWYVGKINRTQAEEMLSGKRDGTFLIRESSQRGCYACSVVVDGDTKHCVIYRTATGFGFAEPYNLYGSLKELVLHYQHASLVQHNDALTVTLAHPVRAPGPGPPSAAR
UniProt Q8R550: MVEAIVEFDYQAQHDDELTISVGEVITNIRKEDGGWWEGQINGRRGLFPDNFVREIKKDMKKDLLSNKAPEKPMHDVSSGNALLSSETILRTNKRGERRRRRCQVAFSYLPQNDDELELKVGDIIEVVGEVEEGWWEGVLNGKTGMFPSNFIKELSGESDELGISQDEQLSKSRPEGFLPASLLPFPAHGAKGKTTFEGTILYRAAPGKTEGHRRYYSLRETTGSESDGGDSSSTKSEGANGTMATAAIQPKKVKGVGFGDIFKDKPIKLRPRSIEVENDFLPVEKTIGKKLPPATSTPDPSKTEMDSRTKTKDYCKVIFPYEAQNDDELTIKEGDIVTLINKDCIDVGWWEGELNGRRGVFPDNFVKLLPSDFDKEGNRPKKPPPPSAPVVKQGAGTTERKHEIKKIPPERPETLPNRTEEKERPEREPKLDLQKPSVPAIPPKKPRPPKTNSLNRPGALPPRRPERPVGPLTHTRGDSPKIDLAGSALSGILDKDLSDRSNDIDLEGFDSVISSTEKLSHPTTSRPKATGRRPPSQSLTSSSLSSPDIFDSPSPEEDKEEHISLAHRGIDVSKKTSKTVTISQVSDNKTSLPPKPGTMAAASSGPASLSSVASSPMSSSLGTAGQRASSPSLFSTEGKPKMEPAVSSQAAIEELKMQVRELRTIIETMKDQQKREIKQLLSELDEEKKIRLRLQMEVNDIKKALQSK
UniProt F8VQ29: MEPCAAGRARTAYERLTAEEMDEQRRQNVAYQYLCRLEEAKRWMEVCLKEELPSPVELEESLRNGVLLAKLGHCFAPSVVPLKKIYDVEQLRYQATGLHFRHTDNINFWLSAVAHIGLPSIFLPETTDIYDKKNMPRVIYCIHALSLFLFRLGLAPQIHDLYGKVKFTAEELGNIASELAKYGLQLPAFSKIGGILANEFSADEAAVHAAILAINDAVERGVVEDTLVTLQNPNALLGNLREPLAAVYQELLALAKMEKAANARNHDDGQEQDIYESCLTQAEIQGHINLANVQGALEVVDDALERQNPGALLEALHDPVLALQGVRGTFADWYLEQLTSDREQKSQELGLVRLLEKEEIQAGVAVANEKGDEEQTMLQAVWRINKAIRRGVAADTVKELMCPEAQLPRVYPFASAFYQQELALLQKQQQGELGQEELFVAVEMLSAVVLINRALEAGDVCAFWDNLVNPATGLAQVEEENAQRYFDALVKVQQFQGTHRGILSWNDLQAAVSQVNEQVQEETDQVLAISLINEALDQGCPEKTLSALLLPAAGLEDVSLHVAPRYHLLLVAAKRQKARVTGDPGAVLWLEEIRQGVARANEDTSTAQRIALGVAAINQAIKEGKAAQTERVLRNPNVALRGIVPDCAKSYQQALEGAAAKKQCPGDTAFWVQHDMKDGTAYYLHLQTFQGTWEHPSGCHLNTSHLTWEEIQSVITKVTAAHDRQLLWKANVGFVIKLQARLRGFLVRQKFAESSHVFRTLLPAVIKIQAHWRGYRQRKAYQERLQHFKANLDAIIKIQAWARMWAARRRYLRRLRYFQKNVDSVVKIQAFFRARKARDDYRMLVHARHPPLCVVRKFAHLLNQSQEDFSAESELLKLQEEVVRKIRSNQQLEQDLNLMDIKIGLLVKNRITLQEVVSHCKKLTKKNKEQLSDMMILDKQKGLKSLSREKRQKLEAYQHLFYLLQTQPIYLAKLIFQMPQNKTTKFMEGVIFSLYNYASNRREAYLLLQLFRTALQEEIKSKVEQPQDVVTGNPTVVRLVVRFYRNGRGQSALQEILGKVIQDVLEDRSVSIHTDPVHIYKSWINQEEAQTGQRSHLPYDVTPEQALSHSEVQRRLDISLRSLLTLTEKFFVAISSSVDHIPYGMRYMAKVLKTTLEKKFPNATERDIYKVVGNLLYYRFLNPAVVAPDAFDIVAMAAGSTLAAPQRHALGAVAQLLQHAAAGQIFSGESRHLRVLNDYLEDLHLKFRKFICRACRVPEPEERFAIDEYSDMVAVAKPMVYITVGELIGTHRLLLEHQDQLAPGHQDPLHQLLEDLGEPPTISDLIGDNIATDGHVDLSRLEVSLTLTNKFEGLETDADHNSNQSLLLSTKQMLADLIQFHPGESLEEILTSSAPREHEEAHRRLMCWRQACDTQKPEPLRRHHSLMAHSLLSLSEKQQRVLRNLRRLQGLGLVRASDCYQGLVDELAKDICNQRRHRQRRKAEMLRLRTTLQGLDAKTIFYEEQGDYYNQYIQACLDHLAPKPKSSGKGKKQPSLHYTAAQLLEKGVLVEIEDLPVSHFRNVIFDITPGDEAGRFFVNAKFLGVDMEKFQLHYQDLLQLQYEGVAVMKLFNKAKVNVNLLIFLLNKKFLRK
UniProt Q9Z1S8: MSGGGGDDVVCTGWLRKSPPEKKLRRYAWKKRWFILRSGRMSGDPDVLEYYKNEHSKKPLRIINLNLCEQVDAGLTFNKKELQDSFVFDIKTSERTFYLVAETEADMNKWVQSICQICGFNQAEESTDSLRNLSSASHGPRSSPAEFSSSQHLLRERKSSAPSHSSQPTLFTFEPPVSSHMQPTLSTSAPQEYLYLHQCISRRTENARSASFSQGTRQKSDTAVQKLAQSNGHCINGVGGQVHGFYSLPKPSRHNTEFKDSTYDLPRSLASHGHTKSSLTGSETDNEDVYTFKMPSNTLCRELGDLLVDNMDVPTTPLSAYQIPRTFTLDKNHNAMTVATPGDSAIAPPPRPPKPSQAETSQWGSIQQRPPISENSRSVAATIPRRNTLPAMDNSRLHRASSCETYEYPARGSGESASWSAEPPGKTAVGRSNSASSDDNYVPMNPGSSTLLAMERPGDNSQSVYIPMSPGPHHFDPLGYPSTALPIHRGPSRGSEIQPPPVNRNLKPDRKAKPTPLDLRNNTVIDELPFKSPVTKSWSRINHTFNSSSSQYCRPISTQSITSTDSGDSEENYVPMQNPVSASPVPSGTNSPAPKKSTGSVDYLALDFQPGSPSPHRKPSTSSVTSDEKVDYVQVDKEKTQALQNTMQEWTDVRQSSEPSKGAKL
UniProt P31041, residues 20-218: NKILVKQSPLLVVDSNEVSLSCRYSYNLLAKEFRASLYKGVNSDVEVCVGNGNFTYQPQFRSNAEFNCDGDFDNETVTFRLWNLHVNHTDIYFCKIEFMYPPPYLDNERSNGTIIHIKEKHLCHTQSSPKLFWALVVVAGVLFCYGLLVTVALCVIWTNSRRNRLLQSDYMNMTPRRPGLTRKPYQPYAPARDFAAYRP
UniProt Q64339, residues 1-155: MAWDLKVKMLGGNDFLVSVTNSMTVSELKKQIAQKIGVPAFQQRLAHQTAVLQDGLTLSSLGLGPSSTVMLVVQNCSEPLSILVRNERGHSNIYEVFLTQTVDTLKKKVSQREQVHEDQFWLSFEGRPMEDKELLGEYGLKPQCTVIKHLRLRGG

T1: p110δ with a C-terminal AviTag (p110δ-AviTag) (mouse) (UniProt O35904)
T1 sequence (chain, biotin on the AviTag (biotinylated in vivo by BirA)): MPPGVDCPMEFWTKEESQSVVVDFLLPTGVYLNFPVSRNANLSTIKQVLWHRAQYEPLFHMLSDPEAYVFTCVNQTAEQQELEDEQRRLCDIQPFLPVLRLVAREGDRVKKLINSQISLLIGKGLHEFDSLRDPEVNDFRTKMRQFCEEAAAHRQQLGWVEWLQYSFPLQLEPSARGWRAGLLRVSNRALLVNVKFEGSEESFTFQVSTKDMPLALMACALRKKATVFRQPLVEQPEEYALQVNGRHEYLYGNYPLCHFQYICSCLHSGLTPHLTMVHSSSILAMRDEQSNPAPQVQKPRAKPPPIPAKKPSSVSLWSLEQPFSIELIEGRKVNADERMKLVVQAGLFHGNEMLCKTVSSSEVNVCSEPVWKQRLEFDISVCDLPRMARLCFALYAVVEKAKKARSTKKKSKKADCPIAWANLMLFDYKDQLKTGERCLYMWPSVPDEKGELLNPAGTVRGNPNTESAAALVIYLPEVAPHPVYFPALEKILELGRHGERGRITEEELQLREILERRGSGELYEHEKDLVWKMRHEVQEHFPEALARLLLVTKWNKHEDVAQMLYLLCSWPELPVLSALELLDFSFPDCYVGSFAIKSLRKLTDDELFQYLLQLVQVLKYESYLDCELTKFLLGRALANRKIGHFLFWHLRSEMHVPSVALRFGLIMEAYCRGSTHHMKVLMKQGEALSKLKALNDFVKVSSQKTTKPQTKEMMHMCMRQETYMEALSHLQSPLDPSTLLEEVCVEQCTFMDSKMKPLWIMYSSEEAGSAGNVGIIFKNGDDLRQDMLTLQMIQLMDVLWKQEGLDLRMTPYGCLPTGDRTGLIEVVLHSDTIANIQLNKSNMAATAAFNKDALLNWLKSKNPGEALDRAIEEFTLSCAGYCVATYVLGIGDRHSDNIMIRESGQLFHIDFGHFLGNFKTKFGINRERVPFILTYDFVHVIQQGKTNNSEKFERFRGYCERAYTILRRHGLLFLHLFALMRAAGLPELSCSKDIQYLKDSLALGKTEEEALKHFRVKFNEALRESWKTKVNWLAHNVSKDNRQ

B1: JAML (transmembrane glycoprotein, co-receptor) (receptor, UniProt Q80UL9 21-379)
chain: QGLPGLTVSSPQLRVHVGESVLMGCVVQRTEEKHVDRVDWLFSKDKDDASEYVLFYYSNLSVPTGRFQNRSHLVGDTFHNDGSLLLQDVQKADEGIYTCEIRLKNESMVMKKPVELWVLPEEPKDLRVRVGDTTQMRCSIQSTEEKRVTKVNWMFSSGSHTEEETVLSYDSNMRSGKFQSLGRFRNRVDLTGDISRNDGSIKLQTVKESDQGIYTCSIYVGKLESRKTIVLHVVQDEFQRTISPTPPTDKGQQGILNGNQLVIIVGIVCATFLLLPVLILIVKKAKWNKSSVSSMASVKSLENKEKINPEKHIYSSITTWETTERGISGESEGTYMTMNPVWPSSPKASSLVRSSVRSK
B2: DIAPH2 (formin) (protein, UniProt O70566 1-1098)
chain: MEELGAAASGAGGGGGGGEEHGGGRSNKRGAGNRAANEEETRNKPKLRDRITSFRKSATKREKPVIQHSIDYQTAVVEIPPALIVHDDRSLILSEKEVLDLFEKMMEDMNLNEEKKAPLRKKDFSIKREMVVQYISATSKSIVGSKVLGGLKNSKHEFTLSSQEYVHELRSGISDEKLLNCLESLRVSLTSHPVSWVNNFGYEGLGVLLDVLEKLLDKKQQENIDKKNQYKVIQCLKAFMNNKFGLQRILGDERSLLLLARAIDPKQQNMMTEIVKILSAICIVGEENILDKLLGGITAAAELNNRERFSPIVEGLENNEALHLQVACMQFINALVTSPYDLDFRIHLRNEFLRCGLKAMLPTLKEIENEGLDIQLRVFEENKEDDLSELSHRLNDIRAEMDDINEVYHLLYNMLKDTAAEPYLLSILQHFLLIRNDYYIRPQYYKIIEECVSQIVLHCSGMDPDFKYRQRIDFDFTHLLDACVNKAKVEENEQKAMEFSKKFDEEFTARQEAQAELQKRDEKIKELETEIQQLRGQGVPSAIPGPPPPPPLPGAGPCPPPPPPPPPPPPLPGVVPPPPPPLPGMPGIPPPPPPPLSGVPPPPPPPGGVFPLLSGPIELPYGMKQKKLYKPDIPMKRINWSKIEPKELSENCVWLKLKEEKYENADLFAKLALTFPSQMKGQRNTEAAEENRSGPPKKKVKELRILDTKTAQNLSIFLGSYRMPYEEIKNIILEVNEEMLSEALIQNLVKYLPDQNALRELAQLKSEYDDLCEPEQFGVVMSTVKMLRPRLTSILFKLTFEEHVNNIKPSIIAVTLACEELKKSESFKRLLELILLVGNYMNSGSRNAQSLGFKINFLCKIKDTKSADQKSTLLHFLAEICDEKYRDILKFPDELEHVESAGKVSAQILKSNLVAMEQSILHLEKNIKNFPPAESHHDKFVEKMMSFTQNAREQYDKLSTMHSNMLKLYESLGEYFIFDPNTVNMEEFFGDLNTFRTLFLEALKENHKRKEMEEKSRRAKLAKEKAEQEKLERQKKKKQLIDINKEGDETGVMDNLLEALQSGAAFRDRRKRIPRNPDNRRPPLERSRSRHNGAMSSK
B3: ICOS (co-stimulatory receptor) (receptor, UniProt Q9WVS0 21-200)
chain: EINGSADHRMFSFHNGGVQISCKYPETVQQLKMRLFREREVLCELTKTKGSGNAVSIKNPMLCLYHLSNNSVSFFLNNPDSSQGSYYFCSLSIFDPPPFQERNLSGGYLHIYESQLCCQLKLWLPVGCAAFVVVLLFGCILIIWFSKKKYGSSVHDPNSEYMFMAAVNTNKKSRLAGVTS

What was measured:
[1] = target: T1, p110δ with a C-terminal AviTag (p110δ-AviTag) (mouse); assay: affinity purification with mass spectrometry; streptavidin beads capture biotinylated p110δ-AviTag from lysates of naive CD4+ T cells stimulated for 1 min by CD3-CD4-crosslinking (unstimulated cells compared); control purifications from BirA^Tg cells; TMT-labelled nLC-MS/MS, three independent experiments; specific: >1.5-fold enriched, p < 0.05 and not classed as non-specific in blasts
[2] = target: T1, p110δ with a C-terminal AviTag (p110δ-AviTag) (mouse); assay: affinity purification with mass spectrometry; streptavidin beads capture biotinylated p110δ-AviTag from lysates of CD4+ T cell blasts stimulated for 1 min by CD3-CD4-crosslinking (unstimulated cells compared); control purifications from BirA^Tg cells; TMT-labelled nLC-MS/MS, three independent experiments; specific: >1.5-fold enriched, p < 0.05
[3] = target: T1, p110δ with a C-terminal AviTag (p110δ-AviTag) (mouse); assay: affinity purification with mass spectrometry; as a3, CD4+ T cell blasts left unstimulated

| Molecule | binding [1] | binding [2] | binding [3] |
| --- | --- | --- | --- |
| p85β (PI3K regulatory subunit) (from UniProt O08908 1-722) | binds | binds |  |
| SH3KBP1 (adaptor protein) (from UniProt Q8R550 1-709) | binds | binds |  |
| IQGAP3 (adaptor protein) (from UniProt F8VQ29 1-1632) |  | binds |  |
| GAB2 (Gab-family adaptor protein) (from UniProt Q9Z1S8 1-665) |  | binds | no binding (only cells without TCR stimulation) |
| CD28 (co-stimulatory receptor) (from UniProt P31041 20-218) |  | no binding |  |
| ISG15 (from UniProt Q64339 1-155) | binds | binds |  |
| B1 |  | binds |  |
| B2 | binds | binds |  |
| B3 |  | binds | no binding (only cells without TCR stimulation) |
